Values quoted from earlier work, collected in article PMC7601231 (Polymers, 2020).

Details: in plain water; ref [15],[16],[17]; cited from earlier work

CC(=O)O[C@@]12CO[C@@H]1C[C@H](O)[C@@]1(C)C(=O)[C@H](O)C3=C(C)[C@@H](OC(=O)[C@H](O)[C@@H](NC(=O)OC(C)(C)C)c4ccccc4)C[C@@](O)([C@@H](OC(=O)c4ccccc4)[C@H]21)C3(C)C [DTX, Docetaxel]
aqueous solubility: 1 to 5 µg/mL
